Assay results as given in paper doi:10.1101/2021.01.25.428077.
These are yes or no findings as the source states them, for the method shown. Binding calls can cover weak binding; strength is not graded here. Sequences can lack the tags named with a protein. For some of these results: Binding seen in cells or lysates may run through a third protein.

Assays:
[1] = target: T1, ACD6-cLuc (… CELL DEATH 6 from Col-0, full length) (Arabidopsis thaliana) (UniProt Q8LPS2); assay: split reporter
T1 sequence: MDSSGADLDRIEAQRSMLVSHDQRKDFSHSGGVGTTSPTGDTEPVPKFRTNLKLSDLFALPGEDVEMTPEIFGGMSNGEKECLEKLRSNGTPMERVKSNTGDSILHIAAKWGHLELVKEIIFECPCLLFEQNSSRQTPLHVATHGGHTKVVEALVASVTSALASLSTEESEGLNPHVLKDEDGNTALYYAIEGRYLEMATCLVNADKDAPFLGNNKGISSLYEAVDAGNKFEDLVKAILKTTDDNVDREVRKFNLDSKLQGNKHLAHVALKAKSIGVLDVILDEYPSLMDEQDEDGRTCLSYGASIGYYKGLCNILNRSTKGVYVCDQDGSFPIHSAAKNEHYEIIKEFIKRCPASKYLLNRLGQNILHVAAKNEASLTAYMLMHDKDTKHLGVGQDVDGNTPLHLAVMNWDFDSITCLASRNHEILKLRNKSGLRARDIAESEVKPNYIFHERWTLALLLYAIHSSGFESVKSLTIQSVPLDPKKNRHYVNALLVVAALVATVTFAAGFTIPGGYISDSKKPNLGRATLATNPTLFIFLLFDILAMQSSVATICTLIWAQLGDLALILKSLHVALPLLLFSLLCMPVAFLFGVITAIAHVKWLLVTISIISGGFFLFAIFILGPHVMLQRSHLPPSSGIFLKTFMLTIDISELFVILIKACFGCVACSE

[2] = target: GFP-MHA1L (Arabidopsis thaliana); assay: co-IP
[3] = target: GFP-MHA1L (Arabidopsis thaliana); assay: native gel or EMSA
[4] = target: GFP-MHA1L (Arabidopsis thaliana); assay: co-IP; remark: listed apart in the source

Row | Molecule | binding [1] | binding [2] | binding [3] | binding [4]
1 | MHA1L-nLuc (MHA1-LIKE) (Arabidopsis thaliana) | binds | – | – | –
2 | ACD6-FLAG (ACD6-Col-0-3xFLAG) (protein, UniProt Q8LPS2 1-670) MDSSGADLDRIEAQRSMLVSHDQRKDFSHSGGVGTTSPTGDTEPVPKFRTNLKLSDLFALPGEDVEMTPEIFGGMSNGEKECLEKLRSNGTPMERVKSNTGDSILHIAAKWGHLELVKEIIFECPCLLFEQNSSRQTPLHVATHGGHTKVVEALVASVTSALASLSTEESEGLNPHVLKDEDGNTALYYAIEGRYLEMATCLVNADKDAPFLGNNKGISSLYEAVDAGNKFEDLVKAILKTTDDNVDREVRKFNLDSKLQGNKHLAHVALKAKSIGVLDVILDEYPSLMDEQDEDGRTCLSYGASIGYYKGLCNILNRSTKGVYVCDQDGSFPIHSAAKNEHYEIIKEFIKRCPASKYLLNRLGQNILHVAAKNEASLTAYMLMHDKDTKHLGVGQDVDGNTPLHLAVMNWDFDSITCLASRNHEILKLRNKSGLRARDIAESEVKPNYIFHERWTLALLLYAIHSSGFESVKSLTIQSVPLDPKKNRHYVNALLVVAALVATVTFAAGFTIPGGYISDSKKPNLGRATLATNPTLFIFLLFDILAMQSSVATICTLIWAQLGDLALILKSLHVALPLLLFSLLCMPVAFLFGVITAIAHVKWLLVTISIISGGFFLFAIFILGPHVMLQRSHLPPSSGIFLKTFMLTIDISELFVILIKACFGCVACSE | – | binds | binds | binds
